The structures appear in SMILES notation. Values joined by “and” are separate entries in the source; they are usually repeats but may differ in a detail not shown here. Equal values may be shown once. The list shows a part of the results. Further columns of the screen follow, without active or inactive calls. Compounds called inactive in the main read-out are mostly missing here. Potencies come from curve fits of mixed quality, noted in brackets.

A short description of this assay: qHTS Assay for Modulators of Lamin A Splicing. The settings on record: HeLa LMNA splicing GFP/RFP minigene ratio, 48 h. The gist of the method: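 Read-out is the ratio of GFP to DsRed2 object intensity, acquired by 488 nm laser-scanning cytometry on HeLa lamin A-EGFP minigene reporter cells. Compound incubation 48 hrs at 37 °C in Opti-MEM with 2% FBS; DMSO 0.5% final.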

Where [1] appears, read: measured here: RFP viability control channel.
Setting [2] is: measured here: GFP splicing reporter channel.

Usually AC50 stands for the midpoint of the concentration-response curve, whichever way the signal moves. For the compound `CC(=O)NCCc1nc2cc(NC(=O)c3cccs3)ccc2n1C`, the concentration at half-maximal activity (AC50) under setting [1] is 0.00316 µM [falling, full curve, poor fit].

Take `Cc1cccc(NCC(=O)N/N=C\c2cccc(Oc3ccccc3)c2)c1`: the AC50 under setting [1] is 12.6 µM [rising, partial curve].

`CCc1nc(SCC(=O)OC(C)C)c2ccccc2n1`: the half-maximal activity concentration (AC50) runs as follows: under setting [2], 0.708 µM [falling, single point]; under setting [1], 0.794 µM [falling, full curve, poor fit].

`N#Cc1ccccc1Sc1ccccc1C(=O)Nc1ccc(Br)cc1`: the AC50 under setting [1] was 6.31 µM [falling, partial curve].

Turning to `CCC(=O)NC(c1ccccc1OC)c1ccc2cccnc2c1O` (stereo unspecified), the AC50 under setting [1] was 35.5 µM [rising, single point].

With `O=C(NNC(=O)c1ccc([N+](=O)[O-])o1)c1ccccc1`, the AC50 was 35.5 µM [falling, single point] under setting [2] and 35.5 µM [falling, single point] under setting [1].

For `CCc1ccc(-c2nn(CC(=O)NC3CCCC3)c3c2cnc2ccc(C)cc23)cc1`, the half-maximal activity concentration (AC50) under setting [1] is 2.51 µM [falling, partial curve, poor fit].

As for `COc1ccc(-c2nc3n(n2)C(=O)CC(c2ccco2)S3)cc1` (stereo unspecified), the concentration at half-maximal activity (AC50) runs as follows: under setting [2], 35.5 µM [rising, single point]; under setting [1], 35.5 µM [rising, single point].

Take `CCC(CC)C(=O)Nc1cccc(-c2nc3cccnc3s2)c1C`: the concentration at half-maximal activity (AC50) under setting [1] was 17.8 µM [rising, single point].

As to `Cc1nn(-c2ccccc2)c(Cl)c1/C=C1\SC(=S)NC1=O`, under setting [1], the half-maximal activity concentration (AC50) was 22.4 µM [rising, single point].

For the compound `O=C(/C=C/c1cccs1)c1ccc(NC(=O)c2ccccc2F)cc1`, the AC50 is, setting by setting: under setting [2], 14.1 µM [rising, single point]; under setting [1], 12.6 µM [rising, partial curve].

In the case of `COc1cccc(CNC(=S)NC2CCCC2)c1`, under setting [1], the half-maximal activity concentration (AC50) is 35.5 µM [rising, single point].

For the compound `FC(F)(F)c1ccccc1-n1ccnc1`, the AC50 is 5.01 µM [rising, single point] under setting [2] and 22.4 µM [rising, partial curve, poor fit] under setting [1].

As for `CCc1ccccc1NC(=O)CN(c1ccc(OC)cc1OC)S(=O)(=O)c1ccccc1[N+](=O)[O-]`, the AC50 runs as follows: under setting [2], 5.62 µM [falling, single point]; under setting [1], 8.91 µM [falling, partial curve].

As for `CC1=C(C(=O)N2CCc3ccccc32)C2(CCC(C)CC2)OC1=O` (stereo unspecified), the AC50 reads like this: under setting [2], 31.6 µM [rising, single point]; under setting [1], 31.6 µM [rising, single point].

As for `CCN(CC)C(=O)c1ccc2nc3ccccc3nc2c1`, the AC50 reads like this: under setting [2], 17.8 µM [rising, single point]; under setting [1], 31.6 µM [rising, single point].

For the compound `O=C(Nc1cn(-c2ccccc2)nc1-c1ccc(Cl)cc1)c1ccccc1`, the AC50 under setting [2] was 3.98 µM [falling, partial curve, poor fit] and the AC50 under setting [1] is 3.98 µM [falling, partial curve].

For `O=C(N/N=C\c1cccc(F)c1)c1ccc(Cn2cc(Br)c([N+](=O)[O-])n2)o1`, under setting [1], the AC50 was 0.501 µM [falling, full curve, poor fit].

For `CCCCN(Cc1ccccc1)S(=O)(=O)c1cc(Br)cc2c1N(C(C)=O)C(C)C2` (stereo unspecified), the AC50 by setting is: under setting [2], 11.2 µM [rising, single point]; under setting [1], 12.6 µM [rising, single point].

On to `CCc1nc2n[nH]c(N)c2c2c1CSC(C)(C)C2`, for which the AC50 under setting [1] was 35.5 µM [rising, single point].

On to `Cc1ccc(CNC(=O)CCC2CCCN(C(=O)CCC(F)(F)F)C2)o1` (stereo unspecified), for which the half-maximal activity concentration (AC50) is, setting by setting: under setting [2], 5.62 µM [falling, single point]; under setting [1], 3.55 µM [falling, partial curve].

Turning to `CC(C)(C)C1CCC(=NNC(=S)NCc2ccccc2)CC1` (stereo unspecified), the AC50 runs as follows: under setting [2], 31.6 µM [rising, single point]; under setting [1], 17.8 µM [rising, single point].

As to `COc1ccc2[nH]cc(CCNc3nc(-c4ccoc4)nc4ccccc34)c2c1`, under setting [2], the concentration at half-maximal activity (AC50) is 35.5 µM [falling, single point].

Turning to `CC1=Nc2ccccc2N=C(NC(=O)CSc2nnnn2-c2ccccc2)C1c1ccccc1` (stereo unspecified), under setting [2], the AC50 was 14.1 µM [rising, single point].

On to `CCCCn1c(SCC(=O)c2ccc(O)c(O)c2)nc2ccsc2c1=O`, for which the AC50 under setting [1] was 20 µM [rising, single point].

For the compound `O=C(Nc1ccccc1)c1cc(S(=O)(=O)N2CCSCC2)ccc1Cl`, the half-maximal activity concentration (AC50) under setting [1] is 35.5 µM [rising, single point].

For `Cc1ccc(N(Cc2ccc(C(=O)NCCSc3ccccn3)cc2)S(C)(=O)=O)cc1C`, the concentration at half-maximal activity (AC50) under setting [1] was 12.6 µM [rising, partial curve].

For `CCC(=O)N(Cc1ccco1)Cc1cc2cccc(C)c2n2nnnc12`, the AC50 under setting [2] was 0.01 µM [falling, full curve, poor fit].

`COc1cc(OC)cc(C(=O)OCCNC(=O)Cn2cnc3c2c(=O)n(C)c(=O)n3C)c1`: the concentration at half-maximal activity (AC50) under setting [2] was 0.00794 µM [rising, partial curve, poor fit].

For `O=C(Nc1nnc(-c2cccs2)o1)c1cccc(Oc2ccccc2)c1`, the AC50 under setting [1] is 4.47 µM [rising, full curve, poor fit].

As to `CC1CCCC(n2c(=S)[nH]c3ccccc3c2=O)C1C` (stereo unspecified), the half-maximal activity concentration (AC50) was 35.5 µM [falling, single point] under setting [2] and 35.5 µM [falling, single point] under setting [1].

Consider `CN1CCN(S(=O)(=O)c2cccc(C(=O)NC3CCCc4ccccc43)c2)CC1` (stereo unspecified), for which the AC50 under setting [2] is 35.5 µM [rising, single point].

As to `COc1ccc(-c2cc(C(=O)N3CCN(c4ncccn4)CC3)c3ccccc3n2)c(OC)c1`, the AC50 under setting [2] is 0.00891 µM [rising, full curve, poor fit] and the AC50 under setting [1] is 6.31 µM [rising, full curve, poor fit].

As for `CSc1ccc(CN2CCC(CO)(Cc3ccc(Cl)cc3)CC2)cc1`, the AC50 under setting [2] is 12.6 µM [falling, partial curve] and the AC50 under setting [1] is 22.4 µM [falling, partial curve].

For the compound `O=C(Nc1ccc2oc(-c3cccc4ccccc34)nc2c1)c1ncn[nH]1`, under setting [1], the half-maximal activity concentration (AC50) was 35.5 µM [falling, single point].

For the compound `COC(=O)C1=C(C(=O)OC)[C@@H]2N(C)c3ccc(OC)cc3[C@@]23C[C@@H](C(=O)OC)N(C(=O)c2cc(C)oc2C)C3=N1`, the concentration at half-maximal activity (AC50) under setting [2] is 0.000794 µM [rising, full curve, poor fit].

In the case of `Cn1c(SCC(=O)N2CCCCCC2)nc2c([nH]c3ccccc32)c1=O`, under setting [1], the AC50 was 0.2 µM [rising, full curve, poor fit].

Turning to `CN(C)CCCN(C(=O)CCSc1ccccc1)c1nc2cc3c(cc2s1)OCO3`, the AC50 under setting [1] is 3.16 µM [falling, partial curve, poor fit].

As for `CSc1ccc(CCNc2ncnc3onc(C)c23)cc1`, the concentration at half-maximal activity (AC50) under setting [2] is 17.8 µM [falling, partial curve].

For `COCCCNCC1C(Oc2ccc(Cl)cc2)C(=O)N1c1ccccc1C` (stereo unspecified), under setting [1], the AC50 was 12.6 µM [rising, single point].

Take `CCOC(=O)c1ccc(NS(=O)(=O)c2cc(C)ccc2OC)cc1`: the AC50 was 3.55 µM [rising, partial curve] under setting [2] and 11.2 µM [rising, partial curve] under setting [1].

Take `O=C(c1ccccc1)c1ccc(OCC(O)CN2CCN(S(=O)(=O)N3CCCCC3)CC2)cc1` (stereo unspecified): the half-maximal activity concentration (AC50) under setting [1] is 14.1 µM [rising, partial curve].

Turning to `Cc1ccccc1OCCSCc1nc2ccccc2[nH]1`, the AC50 is, setting by setting: under setting [2], 20 µM [rising, single point]; under setting [1], 31.6 µM [rising, single point].

Turning to `COc1ccc(N/C=C\C(=O)c2ccc3c(c2)OCO3)cc1OC`, under setting [2], the AC50 was 11.2 µM [rising, partial curve].

On to `Cc1ccc(NC(=O)OCCN2CCN(Cc3ccccc3)CCC2=O)cc1`, for which the concentration at half-maximal activity (AC50) reads like this: under setting [2], 12.6 µM [rising, single point]; under setting [1], 14.1 µM [rising, single point].

`CCN(Cc1ccccc1)C(=O)c1ccc(CNS(=O)(=O)c2ccc(C)cc2)cc1`: the half-maximal activity concentration (AC50) reads like this: under setting [2], 12.6 µM [rising, single point]; under setting [1], 25.1 µM [rising, single point].

Take `O=C(c1csc2c1CCCC2)N1CCN(c2ccc(F)cc2)CC1`: the AC50 runs as follows: under setting [2], 35.5 µM [rising, single point]; under setting [1], 35.5 µM [rising, single point].

Take `CN(C(=O)COC(=O)c1ccccc1Nc1ccccc1)C1CCS(=O)(=O)C1` (stereo unspecified): under setting [2], the AC50 was 0.251 µM [rising, full curve, poor fit].

For `O=C(Nc1ccc(F)cc1)N(Cc1cccs1)Cc1cc2cc3c(cc2[nH]c1=O)OCO3`, the AC50 under setting [2] was 5.62 µM [rising, partial curve, poor fit].

`COc1ccc2c(c1)-c1nc(NC(=O)c3ccco3)sc1CC2`: the concentration at half-maximal activity (AC50) under setting [2] was 35.5 µM [rising, single point].

Regarding `CCOC(=O)c1noc2ncnc(N(CCC(=O)OC)c3ccccc3)c12`, the concentration at half-maximal activity (AC50) under setting [2] is 0.0112 µM [falling, full curve].

In the case of `CCOC(=O)c1noc2ncnc(Nc3ccc(C)c(F)c3)c12`, the AC50 under setting [2] was 1.58 µM [rising, partial curve] and the AC50 under setting [1] is 2 µM [rising, full curve, poor fit].

As for `Cc1ccc(-c2cc(N)n3nc(-c4ccc(C)cc4)cc3n2)cc1`, the AC50 runs as follows: under setting [2], 14.1 µM [falling, partial curve] and 35.5 µM [falling, single point]; under setting [1], 28.2 µM [falling, partial curve] and 22.4 µM [falling, partial curve, poor fit].

`CC(Cc1cccs1)NC(=O)Nc1ccc(Cl)c(Cl)c1` (stereo unspecified): under setting [1], the half-maximal activity concentration (AC50) was 31.6 µM [rising, single point].

The values are drawn from PubChem BioAssay AID1487 (National Center for Advancing Translational Sciences (NCATS), 2009).
